Experimental data: PubChem BioAssay AID504791 (Drosophila RNAi Screening Center, 2011)
Screen: 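Genes whose knock-down strengthens or weakens small-RNA reporter silencing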 (primary screen). Cells: Drosophila S2-derived reporter cells. Knock-down reagent: long dsRNA against Drosophila genes, about 150-250 ng dsRNA per well (siRNA assay); about 80-120 ng (miRNA assay). Timing: about 5 days (siRNA assay); about 4 days (miRNA assay). Conditions: copper sulfate induction of reporters: 25 µM (siRNA assay); 200 mM stated (miRNA assay), 1-2 days before reading. Measurement: 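Dual luciferase assay: Renilla to firefly signal ratio in each well, scaled to the mean ratio of its plate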. Hit rule: 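First-pass picks had plate-scaled ratios over 1.5 for the siRNA assay, over 1.6 for the miRNA assay, or under 0.6; two distinct dsRNAs had to score alike on retest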.
The screen tested about 23,000 reagents; below is an unselected part of those that have a named target and a result. Over the whole deposit, 199 (0.86%) are marked active. 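Plate-scaled ratios behind the calls are not deposited; printed light signals are raw; many rows marked increased or decreased are still called inactive.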 A number with no mark means an inactive call. A plus sign joins genes that one reagent is predicted to hit. Not stated in the record: the direction of the score.

| predicted target | amplicon | stable siRNA reporter change | miRNA reporter change | stable assay Renilla, run 1 (luminescence) | stable assay firefly, run 1 (luminescence) |
| --- | --- | --- | --- | --- | --- |
| CG15696 | DRSC15118 | – | – | 7035 | 3.38e5 |
| CAH6 | DRSC15505 | – | – | 6818 | 4.20e5 |
| ms(2)35Ci | DRSC01460 | – | – | 5654 | 3.69e5 |
| CG14565 | DRSC11726 | – | – | 6639 | 3.56e5 |
| CG30103 | DRSC06894 | – | – | 6359 | 3.23e5 |
| kni | DRSC11891 | – | – | 6490 | 2.91e5 |
| kni | DRSC23093 | – | – | 3511 | 2.25e5 |
| blo | DRSC05937 | – | – | 7858 | 4.09e5 |
| CG13196 | DRSC06321 | – | – | 5074 | 2.27e5 |
| CG9920 | DRSC16578 | – | – | 7666 | 4.25e5 |
| CG13658 | DRSC14659 | – | – | 6842 | 3.90e5 |
| Atg13 | DRSC16228 | – | – | 7822 | 4.01e5 |
| CG6225 | DRSC15996 | – | – | 6411 | 3.74e5 |
| CG13445 | DRSC09992 | – | – | 8761 | 5.51e5 |
| ND-B15 | DRSC06199 | – | – | 5259 | 3.22e5 |
| sun | DRSC20140 | – | – | 4511 | 4.70e5 |
| Cyp6w1 | DRSC04909 | – | – | 22936 | 1.42e6 |
| betaCOP | DRSC20312 | – | – | 6051 | 3.13e5 |
| Ankle2 | DRSC20105 | – | – | 7494 | 6.42e5 |
| Ankle2 | DRSC20106 | – | – | 4775 | 4.36e5 |
| CG3823 | DRSC18325 | – | – | 6203 | 4.30e5 |
| CG1494 | DRSC20509 | – | – | 6139 | 4.64e5 |
| LManIII | DRSC03221 | – | – | 6659 | 3.66e5 |
| CG5347 | DRSC19942 | – | – | 6670 | 4.30e5 |
| CG4563 | DRSC04474 | – | – | 6947 | 3.83e5 |
| CG7182 | DRSC10780 | – | – | 8243 | 6.76e5 |
| mms4 | DRSC06249 | – | – | 6196 | 3.86e5 |
| Pex13 | DRSC06877 | – | – | 8639 | 4.94e5 |
| CG13532 | DRSC04174 | – | – | 6063 | 3.57e5 |
| Cpr49Aa | DRSC07197 | – | – | 6599 | 3.50e5 |
| SmB | DRSC03437 | – | – | 10637 | 1.02e6 |
| CG17780 | DRSC15265 | – | – | 7023 | 3.00e5 |
| Cad96Ca | DRSC14220 | – | – | 6687 | 2.79e5 |
| Cad96Ca | DRSC16693 | – | – | 6270 | 3.11e5 |
| ZAP3 | DRSC17852 | – | – | 7827 | 3.89e5 |
| ZAP3 | DRSC17853 | – | – | 5236 | 3.81e5 |
| ZAP3 | DRSC18249 | – | – | 4864 | 3.36e5 |
| Hsp70Aa + Hsp70Bb + Hsp70Ba + 3 more | DRSC15380 | – | – | 5198 | 3.57e5 |
| rngo | DRSC19903 | – | – | 5231 | 4.07e5 |
| CG4546 | DRSC15593 | – | – | 6283 | 3.41e5 |
| sowi | DRSC12558 | – | – | 6710 | 4.48e5 |
| CG8833 | DRSC11050 | – | – | 10713 | 4.80e5 |
| Df31 | DRSC03738 | – | – | 34562 | 4.80e5 |
| Df31 | DRSC22163 | – | – | 11028 | 7.26e5 |
| CG33635 | DRSC00006 | – | – | 4292 | 3.76e5 |
| NaCP60E | DRSC04307 | – | – | 11939 | 1.13e6 |
| NaCP60E | DRSC21351 | – | – | 9355 | 4.62e5 |
| CG13984 | DRSC02316 | – | – | 7282 | 4.54e5 |
| Teh1 | DRSC14544 | – | – | 6702 | 3.69e5 |
| Jhbp4 | DRSC14222 | – | – | 6806 | 3.35e5 |
| CG33981 + fab1 | DRSC07412 | – | – | 8356 | 3.52e5 |
| CG8460 | DRSC03090 | – | – | 57122 | 3.02e5 |
| CG5567 | DRSC10517 | – | – | 8552 | 3.03e5 |
| CG4613 | DRSC10435 | – | – | 7789 | 3.75e5 |
| eg | DRSC11885 | – | – | 8054 | 4.06e5 |
| CG15155 | DRSC02456 | – | – | 7435 | 4.55e5 |
| alpha-Man-Ic | DRSC21674 | – | – | 8864 | 4.86e5 |
| Socs16D | DRSC20087 | – | – | 5452 | 4.29e5 |
| Socs16D | DRSC23165 | – | – | 4512 | 3.63e5 |
| CG18210 (retired record) | DRSC19089 | – | – | 6102 | 6.34e5 |
| CG18210 (retired record) | DRSC19795 | – | – | 8167 | 5.38e5 |
| RhoGAP68F | DRSC10717 | – | – | 10111 | 4.86e5 |
| iav | DRSC18363 | – | – | 6354 | 3.09e5 |
| SppL | DRSC15228 | – | – | 6748 | 3.37e5 |
| CG6055 | DRSC02923 | – | – | 7570 | 4.04e5 |
| Myd88 | DRSC06815 | – | – | 8696 | 4.88e5 |
| narya | DRSC19439 | – | – | 7618 | 4.91e5 |
| UQCR-C2 | DRSC10405 | – | – | 6847 | 3.62e5 |
| UQCR-C2 | DRSC28912 | – | reporter ratio lowered past the hit cutoff | – | – |
| Sfp26Ad | DRSC00904 | – | – | 4911 | 4.08e5 |
| eIF2Bgamma | DRSC07100 | reporter ratio lowered past the hit cutoff | – | 8594 | 5.36e5 |
| Hn | DRSC11184 | – | – | 6775 | 3.87e5 |
| CG18294 + 825-Oak + CG32214 + 2 more | DRSC22210 | – | – | 9131 | 6.08e5 |
| Atf3 | DRSC17225 | – | – | 5386 | 2.62e5 |
| Atf3 | DRSC22996 | – | – | 4356 | 3.03e5 |
| CG31915 | DRSC03000 | – | – | 7879 | 6.12e5 |
| Pka-R1 | DRSC11674 | – | – | 9311 | 2.58e5 |
| Pka-R1 | DRSC11875 | – | – | 7674 | 3.91e5 |
| CG7120 | DRSC10773 | – | – | 6007 | 4.44e5 |
| Ugt49C1 | DRSC04252 | – | – | 6719 | 4.72e5 |
| Rrp6 | DRSC16223 | reporter ratio raised past the hit cutoff (active) | – | 8338 | 2.72e5 |
| Poxm | DRSC16793 | – | – | 3772 | 3.38e5 |
| Poxm | DRSC22839 | – | – | 5523 | 3.44e5 |
| Ripalpha | DRSC02657 | – | – | 7292 | 3.78e5 |
| CG2104 | DRSC12304 | – | – | 6423 | 3.35e5 |
| CG32568 | DRSC19913 | – | – | 6371 | 5.19e5 |
| CG34022 (retired record) | DRSC07949 | – | – | 6559 | 4.24e5 |
| AdamTS-B | DRSC18346 | – | – | 5351 | 3.42e5 |
| scaf6 | DRSC10075 | – | – | 7447 | 2.75e5 |
| scaf6 | DRSC10676 | – | – | 5919 | 3.81e5 |
| scaf6 | DRSC10678 | – | – | 6352 | 2.66e5 |
| Eip93F | DRSC13527 | – | – | 4524 | 4.74e5 |
| Eip93F | DRSC16661 | – | – | 5135 | 1.66e5 |
| Eip93F | DRSC21754 | – | – | 8631 | 4.12e5 |
| Eip93F | DRSC23072 | – | – | 5438 | 4.16e5 |
| CG8343 | DRSC04905 | – | – | 3.09e5 | 1.56e6 |
| Argk2 | DRSC10483 | – | – | 6254 | 4.47e5 |
| Argk2 | DRSC23349 | – | – | 4552 | 3.93e5 |
| Ms | DRSC16041 | – | – | 9080 | 3.79e5 |
| icln | DRSC07630 | – | – | 5762 | 2.61e5 |
| Sec5 | DRSC00714 | – | – | 26347 | 94081 |
| Hacl | DRSC06061 | – | – | 10861 | 5.80e5 |
| TfIIA-S-2 | DRSC17791 | – | – | 6139 | 3.67e5 |
| CG7203 | DRSC03026 | – | – | 6371 | 3.88e5 |
| Prp40 | DRSC00612 | – | – | 26581 | 3.83e5 |
| Tim10 + CG42497 | DRSC04664 | – | – | 11464 | 9.58e5 |

Reformatted: 13 of the entries above.
predicted target	amplicon	stable siRNA reporter change	miRNA reporter change	stable assay Renilla, run 1 (luminescence)	stable assay firefly, run 1 (luminescence)
CG1494	DRSC20509			6139	4.64e5
LManIII	DRSC03221			6659	3.66e5
CG5347	DRSC19942			6670	4.30e5
CG4563	DRSC04474			6947	3.83e5
CG7182	DRSC10780			8243	6.76e5
mms4	DRSC06249			6196	3.86e5
Pex13	DRSC06877			8639	4.94e5
CG13532	DRSC04174			6063	3.57e5
Cpr49Aa	DRSC07197			6599	3.50e5
SmB	DRSC03437			10637	1.02e6
CG17780	DRSC15265			7023	3.00e5
Cad96Ca	DRSC14220			6687	2.79e5
Cad96Ca	DRSC16693			6270	3.11e5
